The list shows only some results of the screen, not a fair sample: it is rich in T/C values a quarter to a half above the control, in often repeated tests (any T/C) and in doses without a T/C. Further doses and runs are listed elsewhere. T/C gives the treated animals as a percentage of the vehicle group. Schedules are NCI's codes, read here as Q, the interval in days (D) or hours (H), X, the number of doses. Some T/C values carry the count of animals alive at the toxicity check (mostly the fifth day); where none is given, no animal had died by that day. Some doses were run more than once; the values are given in rising order. Some entries give survivors of the animals treated and no T/C: the source holds a T/C of zero for them, seemingly a mark for toxic or unscored doses. Survivors were counted at the toxicity check, usually on the fifth day, unless a day is given; later deaths do not show.
System: BDF1 mice, Adenocarcinoma 755 s.c., tumor weight T/C
Test: NCI In Vivo Anticancer Drug Screen. Data for tumor model Adenocarcinoma 755 (subcutaneous) in B6D2F1 (BDF1) mice
Conditions: T/C endpoint: mean tumor weight, higher T/C = larger tumour; for T/C: evaluated on day 12
Summary of the method: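 Compound activity was tested in mice carrying transplanted tumors. Survival or tumor size was measured, and each value is the treated-group measurement divided by that of the vehicle-treated control group (T/C).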

[1] = dose: 6.0 mg/kg/injection, schedule: Q01DX011 (ip), vehicle: carboxymethylcellulose (CMC)

C(=N\OCCc1ccccc1)/c1cccnc1
T/C (dose: 88.0 mg/kg/injection, schedule: Q01DX011 (ip), vehicle: methylcellulose (MC)): 148 % of control | survivor count (dose: 300.0 mg/kg/injection, schedule: Q01DX011 (ip), vehicle: methylcellulose (MC)): 2 of 10 and 6 of 10

Nc1c(Br)cc2c(c1Br)Cc1cc(Br)ccc1-2
survivor count (dose: 60.0 mg/kg/injection, schedule: Q01DX006 (iv), vehicle: saline): 0 of 10 | survivor count (dose: 120.0 mg/kg/injection, schedule: Q01DX006 (iv), vehicle: saline): 0 of 10 | survivor count (dose: 240.0 mg/kg/injection, schedule: Q01DX006 (iv), vehicle: saline): 0 of 10 | survivor count (dose: 480.0 mg/kg/injection, schedule: Q01DX006 (iv), vehicle: saline): 0 of 10

CC(=O)Nc1c(Cl)cc2c(c1Cl)Cc1cc([N+](=O)[O-])ccc1-2
survivor count (dose: 50.0 mg/kg/injection, schedule: Q01DX011 (ip), vehicle: other): 2 of 10 | survivor count (dose: 100.0 mg/kg/injection, schedule: Q01DX011 (ip), vehicle: other): 3 of 10 | survivor count (dose: 200.0 mg/kg/injection, schedule: Q01DX011 (ip), vehicle: other): 2 of 10 | survivor count (dose: 250.0 mg/kg/injection, schedule: Q01DX011 (ip), vehicle: carboxymethylcellulose (CMC)): 7 of 12 | survivor count (dose: 350.0 mg/kg/injection, schedule: Q01DX011 (ip), vehicle: carboxymethylcellulose (CMC)): 6 of 12 | survivor count (dose: 400.0 mg/kg/injection, schedule: Q01DX011 (ip), vehicle: other): 0 of 10 and 4 of 10 | survivor count (dose: 800.0 mg/kg/injection, schedule: Q01DX011 (ip), vehicle: other): 0 of 10

CCOC(O)C(F)(F)F (configuration not stated)
survivor count (dose: 176.0 mg/kg/injection, schedule: Q01DX011 (ip), vehicle: methylcellulose (MC)): 3 of 10 | survivor count (dose: 200.0 mg/kg/injection, schedule: Q01DX011 (ip), vehicle: carboxymethylcellulose (CMC)): 0 of 10

CO[C@H](C(=O)[C@@H](O)[C@@H](C)O)[C@@H]1Cc2cc3cc(OC4CC(OC5CC(O)C(O)C(C)O5)C(O)C(C)O4)c(C)c(O)c3c(O)c2C(=O)[C@H]1OC1CC(OC2CC(OC3CC(C)(O)C(O)C(C)O3)C(O)C(C)O2)C(O)C(C)O1 (some centres not stated)
survivor count (dose: 0.75 mg/kg/injection, schedule: Q01DX011 (ip), vehicle: water): 2 of 10 | survivor count (dose: 1.5 mg/kg/injection, schedule: Q01DX011 (ip), vehicle: water): 1 of 10 | survivor count (dose: 2.0 mg/kg/injection, schedule: Q01DX011 (ip), vehicle: saline): 0 of 10

CCOC(=O)CCCc1ccc(N=NN(C)CC(C)C)cc1
survivor count (dose: 375.0 mg/kg/injection, schedule: Q01DX011 (ip), vehicle: carboxymethylcellulose (CMC)): 5 of 10

[N-]=[N+]=NC1(C(=O)O)CCCC1
T/C (dose: 120.0 mg/kg/injection, schedule: Q01DX011 (ip), vehicle: carboxymethylcellulose (CMC)): 139 % of control [9 of 10 alive]

CCCOP(=S)(N1CC1C)N1CC1(C)C (configuration not stated)
T/C (dose: 0.75 mg/kg/injection, schedule: Q01DX011 (ip), vehicle: carboxymethylcellulose (CMC)): 141 and 149 % of control [9 of 10 alive] | T/C [1]: 45, 131, 144 % of control [8 of 10 alive] | survivor count [1]: 6 of 10

Cc1ccc(N(O)C(=O)Nc2ccccc2)cc1
T/C (dose: 50.0 mg/kg/injection, schedule: Q01DX011 (ip), vehicle: methylcellulose (MC)): 141 % of control

O=C1NC(=O)C(c2ccc(Cl)cc2)(c2ccccc2Cl)N1 (configuration not stated)
survivor count (dose: 1000.0 mg/kg/injection, schedule: Q01DX011 (ip), vehicle: carboxymethylcellulose (CMC)): 6 of 10 | survivor count (dose: 1200.0 mg/kg/injection, schedule: Q01DX011 (ip), vehicle: other): 1 of 10

CSc1ncc(Br)c(Sc2nc(N)nc3nc[nH]c23)n1
survivor count (dose: 22.5 mg/kg/injection, schedule: Q01DX011 (ip), vehicle: carboxymethylcellulose (CMC)): 1 of 10

From PubChem BioAssay AID180 (DTP/NCI, 2004)
